Measured values published in article PMC10667520.
These are yes or no findings as the source states them, for the method shown. Binding seen in cells or lysates may run through a third protein. Sequences can lack the tags named with a protein.

Molecular target: T1, SLC35D3 (solute carrier family 35, member D3), His-tagged (UniProt Q5M8T2)
T1 sequence: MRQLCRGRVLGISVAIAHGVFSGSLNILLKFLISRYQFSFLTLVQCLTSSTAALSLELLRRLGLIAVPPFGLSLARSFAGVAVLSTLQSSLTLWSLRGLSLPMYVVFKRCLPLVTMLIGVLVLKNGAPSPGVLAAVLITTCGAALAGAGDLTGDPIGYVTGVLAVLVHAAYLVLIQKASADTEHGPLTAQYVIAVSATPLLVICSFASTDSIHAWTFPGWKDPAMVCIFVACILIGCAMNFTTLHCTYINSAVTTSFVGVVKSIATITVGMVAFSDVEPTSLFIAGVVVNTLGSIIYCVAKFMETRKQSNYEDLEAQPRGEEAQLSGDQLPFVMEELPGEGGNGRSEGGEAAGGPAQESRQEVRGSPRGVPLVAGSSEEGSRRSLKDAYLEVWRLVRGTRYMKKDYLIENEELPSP
Test: co-IP; HEK293T cells 48 h after transfection, lysed in IP lysis buffer; lysates incubated with antibodies at 4 °C overnight, protein A/G beads 1 h at room temperature; immunoblot

**Q.** How did the binding turn out when “myc-tagged NOTCH1 intracellular domain (NICD) (domain or fragment)” was run?
**A.** The binding was “no binding”.
